Earlier results, collected in patent publication US20020123504A1, “Lactose-free, non-hygroscopic and anhydrous pharmaceutical compositions of descarboethoxyloratadine” (SEPRACOR INC., priority 1997, published 2002).

Tested on: tumor promotion
Conditions: cited from earlier work

In the case of `Clc1ccc2c(c1)CCc1cccnc1C2=C1CCNCC1` [DCL, 8-chloro-6,11-dihydro-11-(4-piperidylidene)-5H-benzo[5,6]cyclohepta[1,2-b]pyridine], the “Activity in tumor promotion relative to loratadine” value is listed as “five to seven times less active”.
